Data taken from patent US8440674B2, “Substituted pyrimidine compounds as RAF inhibitors and methods of use” (Amgen Inc., priority 2005, dated 2013).
Some of these results come from one statement about several compounds together.

The chains behind the UniProt entries cited, without tags or fusion partners.
UniProt P15056, whole entry V600E: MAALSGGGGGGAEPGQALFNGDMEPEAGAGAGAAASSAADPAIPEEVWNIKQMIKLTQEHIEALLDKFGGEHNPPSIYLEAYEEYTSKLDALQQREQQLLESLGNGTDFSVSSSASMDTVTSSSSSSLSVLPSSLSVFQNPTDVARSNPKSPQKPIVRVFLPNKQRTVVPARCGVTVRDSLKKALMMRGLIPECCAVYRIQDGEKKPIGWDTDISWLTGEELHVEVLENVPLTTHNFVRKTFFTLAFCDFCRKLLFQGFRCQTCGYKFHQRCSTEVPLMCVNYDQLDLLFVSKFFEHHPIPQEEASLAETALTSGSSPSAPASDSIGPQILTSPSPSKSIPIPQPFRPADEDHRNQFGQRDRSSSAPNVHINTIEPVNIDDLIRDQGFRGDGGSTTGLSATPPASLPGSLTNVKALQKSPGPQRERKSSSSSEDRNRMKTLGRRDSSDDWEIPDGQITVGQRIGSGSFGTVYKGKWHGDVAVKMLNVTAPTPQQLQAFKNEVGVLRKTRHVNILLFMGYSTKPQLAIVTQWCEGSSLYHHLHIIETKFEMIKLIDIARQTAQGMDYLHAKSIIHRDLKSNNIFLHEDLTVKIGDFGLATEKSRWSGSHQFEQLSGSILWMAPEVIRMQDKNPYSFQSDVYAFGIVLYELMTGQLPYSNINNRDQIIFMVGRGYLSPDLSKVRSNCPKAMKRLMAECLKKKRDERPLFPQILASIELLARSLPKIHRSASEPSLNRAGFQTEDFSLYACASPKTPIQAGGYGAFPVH

Biological target: recombinant HuBraf V600E (Homo sapiens, UniProt P15056, V600E)
Assay: B-raf Homogenous Time Resolved Fluorescent (HTRF) kinase assay
Assay type: biochemical
Conditions: substrate MEK1, 10 uM ATP; threshold lists; read-out: IC50 for the inhibition of B-raf as measured by the HTRF assay
Description: A Homogeneous Time Resolved Fluorescence (HTRF) kinase assay was established to assay the ability of compounds to inhibit human mutant Braf kinase activity on the substrate MEK1. […] The final concentration of the kinase reaction buffer is 50 mM Tris-HCL pH 7.5, 10 mM MgCl2, 0.5% glucose, 0.5 mM DTT, 0.01% BSA.
The detection reaction proceeds for one hour and is read on a RubyStar (BMG Labtech) counter. IC50s for the test compounds are generated using Excel-XLfit software.

| Structure (SMILES) | IC50 |
| --- | --- |
| CNc1ncc2cc(-c3c(C)ccc4c(Nc5ccc6sc(C)nc6c5)ncnc34)ccc2n1 [Example 58, N^2,7′-dimethyl-N^4′-(2-methyl-1,3-benzothiazol-5-yl)-6,8′-biquinazoline-2,4′-diamine] | ≤ 5 µM |
| CNc1ncc2cc(-c3c(C)ccc4c(Nc5cccc(OC(C)C)c5)n[nH]c34)ccc2n1 [Example 78, N-methyl-6-(6-methyl-3-((3-((1-methylethyl)oxy)phenyl)amino)-1H-indazol-7-yl)-2-quinazolinamine] | ≤ 5 µM |
| CNc1ncc2cc(-c3c(C)ccc4c(Nc5cccc(C(F)(F)F)c5)nccc34)ccc2n1 [Example 24, N-methyl-6-(6-methyl-1-((3-(trifluoromethyl)phenyl)amino)-5-isoquinolinyl)-2-quinazolinamine] | ≤ 5 µM |
